Data on one molecule can be found in PMC6224610, “Structural basis for the recognition of sulfur in phosphorothioated DNA” (Nature Communications, 2018).

This assay concerns the target SBD (sulfur-binding domain) of ScoMcrA (residues 91-260) (Streptomyces coelicolor) (UniProt Q9L0M9). The experiment in a line: crystal structure; ScoMcrA-SBD (91-260) with 8 bp Rp PT-DNA, 1.70 Å; one SBD and one PT-DNA in each asymmetric unit; both purified.

Results are given in words; binding and its absence hold for the method and conditions named.

B1: SBD (sulfur-binding domain) of ScoMcrA (residues 91-260) (domain or fragment, UniProt Q9L0M9 91-260)
chain: REAPKTFHRRVGDVRPARRAMGPALHRPVLLLWAIGQAVARAPRLQPWSTTRDAVAPLMEKYGQVEDGVDGVRYPFWALVRDDLWCVEQAEELTLTSRGRRPTLESLNAVDPSAGLREDDYNLLRSQPEAAASAAAGLIARYFHLLPAGLLEDFGLHELLAGRWPDALRP
Consider B1, for which the binding entry was “no binding”.
